Results as given in patent US20060206946A1, “Method of disrupting heme transport in nematodes and of modelling and evaluating eukaryotic heme transport” (priority 2005, published 2006).
For at least one compound, name, drawing or mass did not settle the structure.

Tested on: C. elegans wild-type N2 strain
Assay: Worm culture and growth assay in axenic CeHR/mCeHR liquid medium
Format: in vivo
Details: 20 μM, free acid or disodium salt, mCeHR
Procedure: (D) Biphasic response of C. elegans cultured in the presence of increasing amounts of hemin chloride (μM). Equal numbers of synchronized L1 larvae were grown in 24-well plates in mCeHR medium for 9 days and quantified (worms/μl) by microscopy. Each data point represents the mean±SD from three separate experiments performed in triplicate.
(A) Aerobic growth of C. elegans in mCeFIR medium with 20 μM hemin supplemented with either gallium protoporphyrin IX (GaPP) or gallium salts. Synchronized L1 larvae were grown for 9 days in 24-well plates and quantified (worms/μl) by microscopy. Each data point represents the mean from a single experiment, and each experiment was performed in triplicate. Inset depicts the GaPP analysis at lower concentrations for clarity.
(B) Effect of heme on the cytotoxicity of GaPP. […] The number of worms per μl was measured on day 9 and the data are presented as mean±SD.
FIG. 9 depicts worm utilization of heme-iron under iron deprivation. […] These values of ferrozine and iron were empirically determined by performing dose-response experiments and analyzing worm growth. The number of worms per μl was measured on day 9 and the data presented as mean±SD performed in triplicate. […]
To qualitatively and quantitatively determine the heme requirement of C. elegans, we assessed growth at various heme concentrations. […]

C=CC1=C(C)c2cc3[nH]c(cc4nc(cc5[nH]c(cc1n2)c(C)c5CCC(=O)O)C(CCC(=O)O)=C4C)c(C)c3C=C [protoporphyrin IX]
use as a substitute for hemin for growth: unable to utilize
